These are yes or no findings as the source states them, for the method shown. Binding seen in cells or lysates may run through a third protein. Binding can be weak; no strength is given.

The target of this experiment is FLAG-TRIM38 (tripartite motif 38). The experiment can be described thus: co-IP; semiendogenous IP in primary mouse hepatocytes transfected with FLAG-TRIM38 under PA-induced metabolic stress; IP lysis buffer 20 mM Tris-HCl pH 7.4, 150 mM NaCl, 1 mM EDTA, 1% NP-40; antitag antibodies and protein G agarose beads overnight at 4°C; Western blot.

B1: transforming growth factor beta-activated kinase 1 (protein, UniProt Q62073 1-579)
chain: MSTASAASSSSSSSASEMIEAPSQVLNFEEIDYKEIEVEEVVGRGAFGVVCKAKWRAKDVAIKQIESESERKAFIVELRQLSRVNHPNIVKLYGACLNPVCLVMEYAEGGSLYNVLHGAEPLPYYTAAHAMSWCLQCSQGVAYLHSMQPKALIHRDLKPPNLLLVAGGTVLKICDFGTACDIQTHMTNNKGSAAWMAPEVFEGSNYSEKCDVFSWGIILWEVITRRKPFDEIGGPAFRIMWAVHNGTRPPLIKNLPKPIESLMTRCWSKDPSQRPSMEEIVKIMTHLMRYFPGADEPLQYPCQYSDEGQSNSATSTGSFMDIASTNTSNKSDTNMEQVPATNDTIKRLESKLLKNQAKQQSESGRLSLGASRGSSVESLPPTSEGKRMSADMSEIEARIVATAGNGQPRRRSIQDLTVTGTEPGQVSSRSSSPSVRMITTSGPTSEKPARSHPWTPDDSTDTNGSDNSIPMAYLTLDHQLQPLAPCPNSKESMAVFEQHCKMAQEYMKVQTEIALLLQRKQELVAELDQDEKDQQNTSRLVQEHKKLLDENKSLSTYYQQCKKQLEVIRSQQQKRQGTS
For the molecule B1, the binding entry is on record as “binds”.

B2: transforming growth factor-β-activated kinase 1 binding protein 2 (protein, UniProt Q99K90 1-693)
chain: MAQGSHQIDFQVLHDLRQKFPEVPEVVVSRCMLQNNNNLDACCAVLSQESTRYLYGEGDLNFSDESGISGLRNHMTSLNLDLQSQNVYHHGREGSRVNGSRTLTHSVSDGQLHGGQSNNELFQQEPQTAPAQVPQGFNVFGMPSTSGASNSTPHLGFHLGSKGTSNLSQQTPRFNPIMVTLAPNIQTGRSTPTSLHIHGVPPPVLNSPQGNSIYIRPYITTPSGTARQTQQHSGWVSQFNPMNPQQAYQPSQPGPWTTYPASNPLPHTSTQQPNQQGHQTSHVYMPISSPTTPQPPTIHSSGSSQSSAHSQYNIQNISTGPRKNQIEIKLEPPQRNSSSKLRSSGPRTASTSSLVNSQTLNRNQPTVYIAASPPNTDEMISRSQPKVYISANATAGDEQGMRNQPTLFISTNSGPSAASRNMSGQVSMGPAFIHHHPPKSRVLGGNSATSPRVVVTQPNTKYTFKITVSPNKPPAVSPGVVSPTFELTNLLNHPDHYVETENIQHLTDPALAHVDRISEARKLSMGSDDAAYTQALLVHQKARMERLQRELEMQKKKLDKLKSEVNEMENNLTRRRLKRSNSISQIPSLEEMQQLRSCNRQLQIDIDCLTKEIDLFQARGPHFNPSAIHNFYDNIGFVGPVPPKPKDQRSTIKAPKTQDAEDEEGAQWNCTACTFLNHPALIRCEQCEMPRHF
Turning to B2, the binding entry is “binds”.
